# The whole screen tested about 410,000 compounds, of which about 18,000 (4.4%) were called active. The inconclusive results got no clear call from the source; some entries with a clear call stand among them for comparison. No stated cut-off is given here; in the data, active means activity change below about -60%; inconclusive means no clear call, values can overlap the other calls; inactive means above about -39%.
# Test: qHTS Assay for inhibitors of the human cytomegalovirus (HCMV)
# Conditions: HFF cells, HCMV-luciferase reporter, 72 h; at 57.5 µM; active compounds read low
# Method in brief: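 After 16 h attachment at 37C, HFF cells received test compound and HCMV-luciferase (1 PFU/cell); reporter luminescence read 72 h later, data normalized against buffer-only and known inhibitor Salinomycin.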
# On the % scale 0 is the no-effect control and ±100 the full control effect.
row,SMILES,"activity change, negative = inhibition"
1,CCCCCCCCCCCCCCCC(=O)Nc1ccn(C2OC(CO)C(O)C2O)c(=O)n1 (stereo unspecified),active: -97.9%
2,CC(C)CNC(=O)COc1ccc(Sc2ccc(OCC(=O)NCC(C)C)cc2)cc1,inconclusive: -41.6%
3,CC(C)c1ccc(/C=C(\c2nc3ccccc3[nH]2)S(=O)(=O)c2ccccc2)cc1,active: -101%
4,COc1ccccc1/C=C/CN1CCCC(CCC(=O)NCc2ccccc2F)C1 (stereo unspecified),inactive: 2.34%
5,Cc1cccc(NC(=S)Nc2cccc(C(F)(F)F)c2)n1,inactive: 24%
6,CCOC(=O)C1CCN(C(=O)c2cc3c(=O)n4ccccc4nc3s2)CC1,inactive: 47.2%
7,Cc1ccccc1NC(=O)c1ccc(CN2CCc3ccccc3C2)cc1,inconclusive: -45.1%
8,CC(C)(C)NC(=O)C(c1cccs1)N(CC1CCCO1)C(=O)c1ccc(-c2ccccc2)[nH]1 (stereo unspecified),inconclusive: -49.1%
9,CCc1ccc(NC(=O)c2ccc3c(c2)nnn3CC)cc1,inactive: 22.2%
10,COc1ccc(C(=O)N/N=C/C(Br)=C/c2ccccc2)cc1,active: -65.3%
11,Cc1c(Cl)cccc1-n1ncc(C(=O)Nc2ccc3c(c2)OCCO3)c1C1CCN(C(=O)OC(C)(C)C)CC1,active: -82.3%
12,COc1ccc(C2N(c3ccc(C)cc3)CCN2c2ccc(C)cc2)cc1O,inconclusive: -49.3%
13,Cc1ccc(NC(=O)c2ccc(NCCCN3CCC(C)CC3)c([N+](=O)[O-])c2)c(C)c1,inconclusive: -46.4%
14,O=C1NC(=O)C2(CCc3ccccc32)N1 (stereo unspecified),inactive: -0.376%
15,Fc1ccccc1N=C1Nc2cccc3cccc1c23,active: -68.6%
16,CCCN(C(=O)Cn1c(C(F)(F)F)nc2ccccc21)C1CCS(=O)(=O)C1 (stereo unspecified),inactive: -31.6%
17,Cn1c(SCc2ccc(F)cc2)nc2ccc(C(=O)NCc3ccc(F)cc3)cc21,active: -68.6%
18,O=C(Nc1ccc(F)cc1)C(c1ccccc1)N1CCN(S(=O)(=O)c2ccc3ccccc3c2)CC1 (stereo unspecified),inconclusive: -43.3%
19,C=CCn1c(=O)c(C(=O)NCc2ccc3c(c2)OCO3)c(O)c2cc(OC)c(OC)cc21,inconclusive: -52.6%
20,Cc1ccc(C)c(NC(=O)c2cc(-c3cc(C)ccc3O)n[nH]2)c1,inactive: 28.2%
21,CC1CCC(NC(=O)c2ccc(NC3=NC4CS(=O)(=O)CC4S3)cc2)CC1 (stereo unspecified),inactive: -3.7%
22,CC(=O)c1cccc(NC(=O)NCc2cccnc2)c1,inactive: -24.5%

row,SMILES,"activity change, negative = inhibition"
1,CC1=C(C(=O)Nc2ccccc2)C(c2ccncc2)C(C#N)=C(SCC(=O)NC(C)C)N1 (stereo unspecified),inactive: -38.8%
2,CCS(=O)(=O)NCc1ccc2c(c1)cc(C)n2C,inactive: -25.2%
3,Cc1ccc(OCC(=O)N2CCN(c3nnc(-c4ccccc4)c4ccccc34)CC2)cc1,active: -83.3%
4,COc1ccc(NC(=O)CN(C)C(=O)c2sc3cc(Cl)ccc3c2Cl)cc1,inconclusive: -55%
5,COc1cccc(-n2nc(C(C)=O)c(C#N)c2-c2ccco2)c1,inconclusive: -42.1%
6,CC(C)c1onc(C(=O)N2CCN(C(c3ccccc3)c3ccccc3)CC2)c1[N+](=O)[O-],active: -97.6%
7,Cc1ccc(CN2CC(C(=O)Nc3ccc(S(=O)(=O)N4CCCCC4)cc3)CC2=O)cc1 (stereo unspecified),active: -68.5%
8,Cc1nn(-c2ccccc2)c(C)c1/C=N/NC(=O)c1cc(-c2cccs2)[nH]n1,active: -89.3%
9,C[C@H](O)[C@@H]1CN2CCc3c([nH]c4ccc(-c5ccc6c(c5)OCO6)cc34)[C@@H]2C[C@@H]1N(C)C(=O)Nc1ccc(F)cc1,active: -102%
10,COP(=O)(OC)c1ccc(NCc2cc(O)ccc2O)cc1,inconclusive: -41.4%
11,CCn1c(C(=O)NCc2cccc(Br)c2)cc2oc3ccccc3c21,active: -81.7%
12,COC(=O)c1ccc(NC(=O)c2c(NCc3ccc(C)o3)sc3c2CCCC3)cc1,inactive: -2.12%
13,C/C(=N\NC(=O)c1nc2ccccn2c1C)c1ccc2c(c1)OCO2,inactive: 23%
14,CCCCn1nnnc1C1(C)CCC(=O)N1CCCn1ccnc1 (stereo unspecified),inconclusive: -41.9%
15,Cc1ccc(N=Nc2c(C)[nH]n(-c3ccccc3)c2=O)c(C)c1,inactive: -9.56%
16,CCCCN(S(=O)(=O)c1ccccc1)S(=O)(=O)c1ccccc1,inconclusive: -44.6%
17,OCCCNc1ncnc2sc3c(c12)CCN(Cc1ccccc1)C3,inconclusive: -42.1%
18,Cc1cc(S(=O)(=O)N2CCOCC2)ccc1OCC(=O)Nc1ccc(Br)cc1F,inactive: 2.66%
19,Nc1ccc(Cl)cc1/C(=N/O)c1ccccc1,inconclusive: -49.3%
20,O=C(NC(=S)NNC(=O)c1ccccc1O)c1cccs1,inconclusive: -50.4%
21,C=CC[C@@H](CC(=O)N(CCO)Cc1ccccc1)C(=O)N[C@H](COC(=O)[C@@H](CC=C)Cc1ccc(F)cc1)c1ccccc1,inactive: 24.2%
22,CC(C)(C)c1ccc(C(=O)NCc2nnc(SCC(=O)NCC3CCCO3)o2)cc1 (stereo unspecified),inconclusive: -53.4%

# 17 of the compounds above, tab-delimited.
row	SMILES	activity change, negative = inhibition
2	CCS(=O)(=O)NCc1ccc2c(c1)cc(C)n2C	inactive: -25.2%
3	Cc1ccc(OCC(=O)N2CCN(c3nnc(-c4ccccc4)c4ccccc34)CC2)cc1	active: -83.3%
4	COc1ccc(NC(=O)CN(C)C(=O)c2sc3cc(Cl)ccc3c2Cl)cc1	inconclusive: -55%
5	COc1cccc(-n2nc(C(C)=O)c(C#N)c2-c2ccco2)c1	inconclusive: -42.1%
6	CC(C)c1onc(C(=O)N2CCN(C(c3ccccc3)c3ccccc3)CC2)c1[N+](=O)[O-]	active: -97.6%
7	Cc1ccc(CN2CC(C(=O)Nc3ccc(S(=O)(=O)N4CCCCC4)cc3)CC2=O)cc1 (stereo unspecified)	active: -68.5%
8	Cc1nn(-c2ccccc2)c(C)c1/C=N/NC(=O)c1cc(-c2cccs2)[nH]n1	active: -89.3%
9	C[C@H](O)[C@@H]1CN2CCc3c([nH]c4ccc(-c5ccc6c(c5)OCO6)cc34)[C@@H]2C[C@@H]1N(C)C(=O)Nc1ccc(F)cc1	active: -102%
10	COP(=O)(OC)c1ccc(NCc2cc(O)ccc2O)cc1	inconclusive: -41.4%
11	CCn1c(C(=O)NCc2cccc(Br)c2)cc2oc3ccccc3c21	active: -81.7%
12	COC(=O)c1ccc(NC(=O)c2c(NCc3ccc(C)o3)sc3c2CCCC3)cc1	inactive: -2.12%
13	C/C(=N\NC(=O)c1nc2ccccn2c1C)c1ccc2c(c1)OCO2	inactive: 23%
14	CCCCn1nnnc1C1(C)CCC(=O)N1CCCn1ccnc1 (stereo unspecified)	inconclusive: -41.9%
15	Cc1ccc(N=Nc2c(C)[nH]n(-c3ccccc3)c2=O)c(C)c1	inactive: -9.56%
16	CCCCN(S(=O)(=O)c1ccccc1)S(=O)(=O)c1ccccc1	inconclusive: -44.6%
17	OCCCNc1ncnc2sc3c(c12)CCN(Cc1ccccc1)C3	inconclusive: -42.1%
18	Cc1cc(S(=O)(=O)N2CCOCC2)ccc1OCC(=O)Nc1ccc(Br)cc1F	inactive: 2.66%

# (next part)

row,SMILES,"activity change, negative = inhibition"
1,O=C1NC(=NCc2ccccc2)S/C1=C/c1ccc(O)cc1,active: -62.3%
2,CCCCCCN1C[C@H](O)[C@@H](n2cc(-c3ccc(F)cc3)nn2)C[C@@H]1c1ccc(Cl)cc1,inactive: 2.1%
3,COc1ccc(N(CC(=O)Nc2ccccc2OC)S(=O)(=O)c2ccc(NC(C)=O)cc2)cc1,inconclusive: -54.7%
4,O=C(OCC(=O)c1ccc(Cl)s1)c1ccc(CO)cc1,inactive: -13.3%
5,COc1ccc(-n2c(O)c(C(C)=NCCCn3ccnc3)c(=O)[nH]c2=O)cc1,active: -65.8%
6,O=C(NCC(c1ccco1)N1CCCC1)c1ccc(Cl)c(S(=O)(=O)N2CCc3ccccc32)c1 (stereo unspecified),inconclusive: -54.2%
7,O=C1/C(=C/c2ccccn2)COc2ccccc21,inconclusive: -45.9%
8,Cc1ccc(NC(=S)NC(=O)c2cncc(Br)c2)c(C)c1,inactive: 1.74%
9,COc1ccc(OC)c(NC(=O)CSc2c3c(nc4ccccc24)CCCC3)c1,inactive: -26.9%
10,Cc1cccc(N2CCN(C(=O)c3cc(S(=O)(=O)N(C)C)ccc3N3CCCC3)CC2)c1C,inconclusive: -41.6%
11,COc1ccc(C=C(C(=O)c2ccccc2)c2ccccc2)cc1,inconclusive: -50.6%
12,Cc1ccc(-n2c(O)c(/C=N/c3ncn[nH]3)c3ccccc3c2=O)cc1,inconclusive: -57.6%
13,COc1ccc(CCNC(=O)C(=O)NN=C2CCCCCCC2)cc1OC,inconclusive: -53.7%
14,COc1ccccc1NC(=O)c1ccccc1-c1ccccc1C(=O)O,inconclusive: -50.8%
15,Cc1cc(NC(=O)CCSc2nc(-c3ccco3)cc(C(F)(F)F)n2)n(-c2ccccc2)n1,inconclusive: -49.8%
16,CC1CCCCN1CCCNc1ccc(C(CC(N)=O)NC(=O)Cc2ccc(Cl)cc2)cc1[N+](=O)[O-] (stereo unspecified),inconclusive: -48.7%
17,CC1(C(=O)Nc2ccccc2)CCN1C(=O)C1(c2ccc(Cl)cc2)CC1 (stereo unspecified),inconclusive: -46.1%
18,CCCCn1c(SCc2ccc(Cl)cc2)nc2c1c(=O)[nH]c(=O)n2C,inactive: 34%
19,O=C(Nc1ccc(Cc2ccncc2)cc1)c1ccc(S(=O)(=O)N2CCOCC2)cc1,active: -73.3%
20,COc1ccc(NC(=O)CNC(=O)Cn2cnc3sc(C)c(C)c3c2=O)cc1OC,inconclusive: -55.1%
21,COc1ccc(/C=C2\CCc3ccccc3C2=O)cc1Cn1cccn1,inconclusive: -46.3%
22,CCCC(=O)c1c[nH]c(C(=O)NCCc2ccccn2)c1,inactive: 99%

row,SMILES,"activity change, negative = inhibition"
1,Cc1ccccc1Cn1c(C)cc(C)c(C#N)c1=O,inconclusive: -55.8%
2,CSCCC(NC(=O)c1ccccc1Br)C(=O)NCc1ccc(F)cc1 (stereo unspecified),active: -63.1%
3,O=[N+]([O-])c1cc([N+](=O)[O-])c2n[nH]c(-c3ccccc3)c2c1,inconclusive: -58.1%
4,COC(=O)c1[nH]nc(-c2ccccc2)c1-c1ccccc1,inactive: 12.3%
5,COc1ccc(C(=O)Nc2nc(CC(=O)NCCc3ccccc3)cs2)cc1,inactive: 33.8%
6,CCN(CC)c1ccc(/C=N/N2C(=O)c3ccccc3C2=O)cc1,inconclusive: -42.2%
7,CC(=O)c1cccc(NC(=O)C2C3C=CC(C4CC34)C2C(=O)O)c1 (stereo unspecified),inconclusive: -44.1%
8,O=C(NCc1ccc(F)c(F)c1)c1cnc(N2CCN(Cc3ccccc3)C2=O)s1,inactive: -32.1%
9,CC(C)(C)c1ccc(-c2ccc3c(c2)S(=O)(=O)c2ccccc2C3=O)cc1,inconclusive: -48.8%
10,CCC(Oc1ccccc1)C(=O)Nc1nnc(S(=O)(=O)N(CC)CC)s1 (stereo unspecified),inactive: -2.53%
11,O=C(CCCc1c[nH]c2ccccc12)NCc1ccccc1C(F)(F)F,inactive: 23.3%
12,CCn1c(C)nc2cc(C(=O)N/N=C/c3cccc(O)c3O)ccc21,inactive: -18.3%
13,COc1ccccc1CCNC(=O)C1CC(=O)N(c2ccccc2F)C1 (stereo unspecified),inconclusive: -45.5%
14,COc1cccc(C2=NOC(C(=O)Nc3cc(C)on3)C2)c1 (stereo unspecified),active: -102%
15,O=C(Nc1cccc(S(=O)(=O)Nc2ccccc2F)c1)c1ccc2ccccc2n1,inconclusive: -41.8%
16,O=C(N/N=C/c1cc([N+](=O)[O-])ccc1O)NC12CC3CC(CC(C3)C1)C2,inconclusive: -46.2%
17,O=C(/C=C/c1ccc(Cl)cc1)Nn1c(-c2cccs2)nc2ccccc2c1=O,inconclusive: -40.6%
18,Cc1cccc2sc(NS(C)(=O)=O)nc12,inactive: -18.5%
19,O=C(NCc1ccc2c(c1)OCO2)c1ccc2c(c1)S(=O)(=O)c1ccccc1C2=O,inactive: 24.8%
20,CS(=O)(=O)N(Cc1ccccc1Cl)c1ccc(C(=O)NCc2cccnc2)cc1,inconclusive: -54.9%

# Reference: PubChem BioAssay AID1259415 (National Center for Advancing Translational Sciences (NCATS), 2018)
